These are yes or no findings as the source states them, for the method shown. Some binding calls cover weakened binding; strength is not graded here.
What was measured:
TRAIL R2 (human) = TRAIL R2 (human) (UniProt O14763); experiment: capture ELISA: His-tagged Tn3 on anti-His antibody, biotinylated TRAIL R2
[1] = molecular target: human TRAIL R2-Fc (human) (UniProt O14763); experiment: capture ELISA: His-tagged construct captured from E. coli media on anti-His antibody, biotinylated TRAIL R2 (axis: TrailR2-Fc) titrated, streptavidin-HRP

Protein sequences, listed by entry. Tags and fused reporters are not part of them. Residues count along the entry.
UniProt O14763, residues 52-183: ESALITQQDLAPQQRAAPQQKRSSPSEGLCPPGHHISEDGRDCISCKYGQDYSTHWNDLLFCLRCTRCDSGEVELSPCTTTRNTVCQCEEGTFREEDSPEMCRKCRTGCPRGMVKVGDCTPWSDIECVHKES

B1: A1 (1E11) (designed binder)
chain: AIEVKDVTDTTALITWAKPWVDPPPLWGCELAYGIKDVPGDRTTIDLQQKHTAYSIGNLKPDTEYEVSLICFDPYGAKSNPAKETFTTGGGTLGHHHHHHHH
Q: For B1, which binding (TRAIL R2 (human)) is on record?
A: binds

Q: And the binding [1]?
A: binds
